From ChEMBL document CHEMBL3988442, “University of Dundee, Small-Polar-MMV Screening Library” (2021).

Chains of the proteins cited; added tags and fusions are not shown.
UniProt E9BF75, entry or part of it: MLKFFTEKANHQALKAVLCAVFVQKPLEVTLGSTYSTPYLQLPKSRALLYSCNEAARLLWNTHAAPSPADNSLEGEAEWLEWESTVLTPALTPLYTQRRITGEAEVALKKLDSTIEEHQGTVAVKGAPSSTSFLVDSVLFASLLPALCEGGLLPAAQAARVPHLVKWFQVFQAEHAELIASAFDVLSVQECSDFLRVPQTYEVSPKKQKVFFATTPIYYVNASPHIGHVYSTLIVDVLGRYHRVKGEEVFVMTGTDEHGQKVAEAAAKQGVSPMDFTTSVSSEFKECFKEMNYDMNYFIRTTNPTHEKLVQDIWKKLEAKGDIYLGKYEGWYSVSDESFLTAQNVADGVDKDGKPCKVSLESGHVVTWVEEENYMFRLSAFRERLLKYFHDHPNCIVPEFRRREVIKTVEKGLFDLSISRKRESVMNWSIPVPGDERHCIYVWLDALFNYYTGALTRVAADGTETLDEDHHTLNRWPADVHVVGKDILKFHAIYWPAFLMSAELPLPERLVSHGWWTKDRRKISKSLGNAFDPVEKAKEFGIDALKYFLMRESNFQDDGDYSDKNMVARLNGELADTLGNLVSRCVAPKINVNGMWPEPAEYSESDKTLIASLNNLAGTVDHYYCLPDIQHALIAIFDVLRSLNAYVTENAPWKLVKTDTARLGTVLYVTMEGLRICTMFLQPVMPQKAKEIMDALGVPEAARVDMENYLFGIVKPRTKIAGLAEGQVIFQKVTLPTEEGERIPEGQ

All values are in %.
How 0% and 100% were set is not recorded. Most values in the screen are low, and negative values occur.
This is an unselected part of the compounds tested.

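Methionyl-tRNA synthetase (putative), Leishmania donovani (UniProt E9BF75). Primary screen of methionyl-tRNA synthetase; the read-out is not stated. The test concentration is not given. Values are per cent inhibition. About 68,000 compounds were tested under these conditions; 0.035% (about 24) showed 50% or more at least once.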

Compound: CCOC(=O)N1CCC(NC(C)c2ccccc2-n2cccn2)CC1 (stereo not shown)
Inhibition: 9.296

Compound: Cc1[nH]ncc1CCCNC(=O)N1CCN2CCCCC2C1 (stereo not shown)
Inhibition: 2.29

Compound: O=C(c1cccnc1)N1Cc2ccccc2OCC1Cn1ccnc1 (stereo not shown)
Inhibition: 14.92

Compound: Cc1cc(C)c2c(N3CCN(Cc4ncccc4C)CC3)ncnc2n1
Inhibition: 10.78

Compound: c1cc2n(n1)CC(CNCc1ccc(OC3CCCCC3)nc1)CN2 (stereo not shown)
Inhibition: 23.89

Compound: Cc1cc(C(=O)N2CCN(C(=O)CCC3CCCCC3)CC2)n(C)n1
Inhibition: 15.57

Compound: Cc1cc(CN(Cc2cccs2)CC2CCCO2)on1 (stereo not shown)
Inhibition: 12.89

Compound: CC1=N[C@@]2(CC[C@@H]3CN(CC4CC4)C[C@@H]32)C(=O)N1CC1CC1
Inhibition: 8.654

Compound: O=C(Cn1ccc2cc(Br)ccc21)NC[C@@H]1CCCN2CCCC[C@H]12
Inhibition: -0.2584

Compound: CC(C)Nc1ncc(CN2C[C@@H](CN3CCC(O)CC3)[C@@H](CO)C2)cn1
Inhibition: 11.71

Compound: CCN1CC[C@]2(CN(Cc3nccs3)C[C@H]2c2ccccc2)C1=O
Inhibition: 10.95

Compound: COC[C@@H]1CCC[C@@]12CN(C(=O)N(C)C)CCO2
Inhibition: 11.73

Compound: CC(=O)N1[C@H](Cn2cncn2)C[C@@H]2CN(C(=O)c3ccoc3)CC[C@@H]21
Inhibition: 6.162

Compound: Cc1ccc(CC(=O)N2CCC(c3nnc4n3CCC4)CC2)cc1
Inhibition: 14.38

Compound: Cn1cnc2c1CCN(Cc1csc(-c3ccco3)n1)C2
Inhibition: 12.22

Compound: O=S(=O)(NCC1COCCO1)c1ccc(C2CCCCC2)cc1 (stereo not shown)
Inhibition: 16.67

Compound: CN(C)c1ccc(CCCNC(=O)Nc2ccc(C#N)cc2)cc1
Inhibition: 8.333

Compound: Cc1ccc(CN(CCCN2CCOCC2)Cc2[nH]cnc2C)o1
Inhibition: 9.677

Compound: Cc1ncc2c(n1)CN(Cc1nc(-c3ccco3)oc1C)CC2
Inhibition: 28.57

Compound: CC(C)CN1C[C@H]2C[C@H](C(=O)NCc3cccnc3)[C@@H](C1)O2
Inhibition: 8.696

Compound: Cc1cc(N2CCC(O)(CN(C)C(=O)CCN)C2)c2cnccc2n1 (stereo not shown)
Inhibition: 15.41

Compound: c1ccc(-c2cnc(CN3CCn4c(nnc4C4CC4)C3)o2)cc1
Inhibition: 16.33

Compound: Cc1ccc2c(c1)c(C)cc(=O)n2CC(=O)O
Inhibition: 14.6

Compound: CCCN1CCC(NN2CCN(C)CC2)CC1
Inhibition: -3.2

Compound: Cn1cccc1C(=O)N1CCc2ncc(Cn3cccn3)n2CC1
Inhibition: 13.81

Compound: CCCn1ncc2c(C(=O)NC(C)Cn3cccn3)cc(C3CC3)nc21 (stereo not shown)
Inhibition: -1.679

Compound: Cc1nn(C)c(C)c1C1CCCN1CCOc1ccccc1C#N (stereo not shown)
Inhibition: -1.748

Compound: CCCc1cc(NC(=O)c2cc(N3CCNC3=O)c(F)cc2F)n[nH]1
Inhibition: 0.8523

Compound: COc1cccc(CN2CCN(Cc3ccc4nonc4c3)CC2=O)c1
Inhibition: 11.37

Compound: Cc1ncsc1CCN(C)C(=O)CN1CCOC1=O
Inhibition: -7.949

Compound: O=C1CCN(C(=O)NCCc2c[nH]c3ccc(Cl)cc23)CCN1
Inhibition: 23.78

Compound: COc1ccncc1NCc1ccsc1
Inhibition: 11.17

Compound: Cc1ncsc1CNC(=O)N(CCCO)C1CCc2ccccc21 (stereo not shown)
Inhibition: 10.84

Compound: O=C(Nc1ccc(Cl)cc1C(=O)NCCN1CCOCC1)c1ccco1
Inhibition: 3.797

Compound: Cc1nc(CC(=O)N2CCCN(c3ccc(F)cc3)CC2)cs1
Inhibition: -2.089

Compound: CCC(CO)N(Cc1ccccn1)C(=O)c1ccc(F)c(F)c1 (stereo not shown)
Inhibition: 14.53

Compound: O=C(NC1CC2(CCN(CCO)CC2)c2ccccc21)c1ccno1 (stereo not shown)
Inhibition: 1.812

Compound: CCN(CC1CCOC1)C(=O)Nc1ccc(OC)nc1 (stereo not shown)
Inhibition: 7.975

Compound: NC(=O)N1CCCN(C(=O)Nc2cc(-n3cccc3)ccc2F)CC1
Inhibition: 23.74

Compound: Cc1ncc(-c2ccncc2)c(C2CCCN(C(=O)c3ccno3)C2)n1 (stereo not shown)
Inhibition: -0.3106

Compound: Cc1nc(CN(C)C2CCN(CC3CCC3)C2)no1 (stereo not shown)
Inhibition: 8.659

Compound: CC(Cn1cccn1)NC(=O)N1CCN(Cc2ccsc2)CC1 (stereo not shown)
Inhibition: 8.282

Compound: CC(=O)Nc1cc(CCC2CCN(C(=O)c3ccccn3)CC2)ccn1
Inhibition: 11.49

Compound: O=S(=O)(NCCCn1ccc2ccccc21)N1CCCCC1
Inhibition: 3.727

Compound: CCN(Cc1cccc2c1OCO2)C(=O)Nc1cn[nH]c1
Inhibition: 19.13

Compound: CNS(=O)(=O)CCCn1nnc(-c2ccc(F)c(C)c2)n1
Inhibition: 12.77

Compound: N#Cc1cccc(CN2C[C@@H](F)[C@@H](OCc3nc4cnccc4[nH]3)C2)c1
Inhibition: 5.263

Once more, the final 4:

{"compound": "O=S(=O)(NCCCn1ccc2ccccc21)N1CCCCC1", "Inhibition": 3.727}
{"compound": "CCN(Cc1cccc2c1OCO2)C(=O)Nc1cn[nH]c1", "Inhibition": 19.13}
{"compound": "CNS(=O)(=O)CCCn1nnc(-c2ccc(F)c(C)c2)n1", "Inhibition": 12.77}
{"compound": "N#Cc1cccc(CN2C[C@@H](F)[C@@H](OCc3nc4cnccc4[nH]3)C2)c1", "Inhibition": 5.263}